The results in this text go back to article PMC6395066.

The target of the assay is T1, myc-tagged full-length Dystroglycan (UniProt Q62165).
T1 sequence: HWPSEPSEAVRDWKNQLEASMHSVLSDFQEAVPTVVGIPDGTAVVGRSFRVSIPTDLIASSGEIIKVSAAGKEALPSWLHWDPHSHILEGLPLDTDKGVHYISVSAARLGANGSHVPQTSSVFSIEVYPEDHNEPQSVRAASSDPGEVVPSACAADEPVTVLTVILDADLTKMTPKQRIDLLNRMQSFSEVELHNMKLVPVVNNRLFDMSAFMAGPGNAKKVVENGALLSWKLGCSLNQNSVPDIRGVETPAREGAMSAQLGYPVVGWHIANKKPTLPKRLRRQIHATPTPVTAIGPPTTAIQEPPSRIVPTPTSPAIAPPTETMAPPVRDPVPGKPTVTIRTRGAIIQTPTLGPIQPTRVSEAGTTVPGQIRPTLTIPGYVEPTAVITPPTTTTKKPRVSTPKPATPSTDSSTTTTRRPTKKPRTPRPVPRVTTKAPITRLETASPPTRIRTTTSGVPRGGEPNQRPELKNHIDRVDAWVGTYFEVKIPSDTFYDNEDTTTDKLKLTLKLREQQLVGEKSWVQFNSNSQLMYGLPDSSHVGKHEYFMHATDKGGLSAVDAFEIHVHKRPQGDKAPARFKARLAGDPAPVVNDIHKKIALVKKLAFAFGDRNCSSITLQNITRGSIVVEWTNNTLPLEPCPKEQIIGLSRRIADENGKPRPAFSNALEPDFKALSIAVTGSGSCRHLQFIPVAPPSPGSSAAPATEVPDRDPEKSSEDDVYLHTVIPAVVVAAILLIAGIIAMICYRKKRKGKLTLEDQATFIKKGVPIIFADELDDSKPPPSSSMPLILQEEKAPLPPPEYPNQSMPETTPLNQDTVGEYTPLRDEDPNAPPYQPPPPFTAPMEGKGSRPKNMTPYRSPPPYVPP
Kind of assay: AP-tagged ligand binding to live cells; COS7 cells transfected with myc-tagged full-length Dystroglycan, 5 nM AP-tagged ligand at 37° for 30 min, bound AP developed with BCIP/NBT.

Results are given in words; binding and its absence hold for the method and conditions named. Binding calls can cover weak binding; strength is not graded here. Tags and fused reporters may be left off the sequences shown.

Regarding “Alkaline Phosphatase-tagged Celsr3-LG1 domain (M. musculus) (domain or fragment)”, the binding entry is “binds”.
“Alkaline Phosphatase-tagged Celsr3-LG2 domain (M. musculus) (domain or fragment)”: the binding entry is recorded as “no binding (tested: 5 nM)”.
